Source: the supplement of paper PMC7858590
Where “and” joins values, the source holds several entries; their conditions need not be identical. Equal values may be shown once. ± gives the standard deviation of the averaged measurements. The full ranking holds about 3,800 compounds; the median of “cell shape (eccentricity) Z-score vs DMSO control” is about 1.1, and the lowest 2% start at about -4.7. The list shows a part of the results. Residues, ends and D or L forms follow the SMILES beside them. *: point of attachment. Cbz = O=C(OCc1ccccc1)*

test system: human monocyte-derived macrophages (M0); experiment: cell shape (eccentricity) Z-score vs DMSO control; higher = more elongated, M2-like morphology; details: 20 µM; 24 h; macrophage state: M0 (M-CSF)

Row | Compound | cell shape (Z-score)
1 | C=C[C@@]12COC(=O)C(=C)C1[C@@H](O)[C@H](C(=C)C(=O)OC)[C@@H](OC(=O)C(=C)CO)C2 (stereo partly drawn) | 0.674
2 | C[C@@H]1CN([C@@H](C)CO)C(=O)c2cccc(NC(=O)c3ccncc3)c2O[C@H]1CN(C)C(=O)Nc1cccc2ccccc12 | 2.24
3 | CCN(CC)CCOC(=O)c1cc(Cl)c(N)cc1OC | -1.96
4 | C=C(C)C(O)C(O)c1c(OC)ccc2ccc(=O)oc12 (stereo not drawn) | -1.84 ± 0.5
5 | COc1cc(OC)c(/C=C/S(=O)(=O)Cc2ccc(OC)c(NCC(=O)O)c2)c(OC)c1 | 7.42
6 | Cc1cccc(C)c1OCC(C)N (stereo not drawn) | 1.2
7 | CC(C)NC(=O)N(C)C[C@H]1Oc2ccc(N(C)C)cc2C(=O)N([C@H](C)CO)C[C@H]1C | 1.12
8 | CC(C)(CO)C(O)C(=O)NCCCO (stereo not drawn) | 4.23
9 | Cc1cc(Nc2cc(N3CCN(C)CC3)nc(Sc3ccc(NC(=O)C4CC4)cc3)n2)n[nH]1 | 11 and 13 and 18
10 | Cn1c(=O)c2c(ncn2CCO)n(C)c1=O | -0.836
11 | CCN(CC)CCNC(=O)c1cc(Cl)c(N)cc1OC | -2.66
12 | COc1cc(C(O)CCOC2OC(CO)C(O)C(O)C2O)cc2cc(-c3ccc4c(c3)OCO4)oc12 (stereo not drawn) | 3.3
13 | COc1cc(C[C@@H]2CO[C@@H](c3ccc(O)c(OC)c3)[C@@H]2CO)ccc1O | 0.645
14 | Fc1ccc(C(c2ccc(F)cc2)N2CCN(CC=Cc3ccccc3)CC2)cc1 | 0.716
15 | CC(C)(C)c1cc(NC(=O)Nc2ccc(-c3cn4c(n3)sc3cc(OCCN5CCOCC5)ccc34)cc2)no1 | -1.1
16 | O=C(/C=C/c1ccc(O)cc1)CC(=O)/C=C/c1ccc(O)cc1 | -1.34
17 | Nc1ccccc1S(N)(=O)=O | 4.3
18 | COc1cc(CCc2cc(NC(=O)c3ccc(N4C[C@@H](C)N[C@@H](C)C4)cc3)n[nH]2)cc(OC)c1 | 1.24
19 | COc1cc(OC2OC(COC3OCC(O)(CO)C3O)C(O)C(O)C2O)c2c(-c3ccc(O)c(O)c3)cc(=O)oc2c1 (stereo not drawn) | -0.273
20 | Nc1ncnc2c1ncn2[C@@H]1O[C@H](C[C@@H](N)CC[C@H](N)C(=O)O)[C@@H](O)[C@H]1O | 1.35
21 | C[C@@H]1CC2C3C[C@H](F)C4=CC(=O)C=C[C@]4(C)[C@@]3(F)[C@@H](O)C[C@]2(C)[C@@]1(O)C(=O)CO (stereo partly drawn) | -0.062
22 | CC(C)OC(=O)c1cc2c(OCC(O)CNC(C)(C)C)cccc2[nH]1 (stereo not drawn) | 2.05
23 | C=CC(=O)Nc1cccc(Oc2nc(Nc3ccc(N4CCN(C)CC4)cc3OC)ncc2Cl)c1 | 1.63
24 | C/C=C(/C)C(=O)OC(COc1c2ccoc2c(OC)c2oc(=O)ccc12)C(C)(C)O (stereo not drawn) | 2.13

Laid out differently: entries from further up.
Cn1c(=O)c2c(ncn2CCO)n(C)c1=O
  cell shape (Z-score): -0.836
CCN(CC)CCNC(=O)c1cc(Cl)c(N)cc1OC
  cell shape (Z-score): -2.66
COc1cc(C[C@@H]2CO[C@@H](c3ccc(O)c(OC)c3)[C@@H]2CO)ccc1O
  cell shape (Z-score): 0.645

A second format for 2 compounds above.
Row	Compound	cell shape (Z-score)
15	CC(C)(C)c1cc(NC(=O)Nc2ccc(-c3cn4c(n3)sc3cc(OCCN5CCOCC5)ccc34)cc2)no1	-1.1
16	O=C(/C=C/c1ccc(O)cc1)CC(=O)/C=C/c1ccc(O)cc1	-1.34

Continued:

Row | Compound | cell shape (Z-score)
25 | CC(=O)O[C@H]1CC[C@@]2(C)C(C[C@@H](OC(C)=O)[C@@]3(C)C4=CC(=O)O[C@@H](c5ccoc5)[C@]4(C)CCC23)C1(C)C (stereo partly drawn) | 0.0185
26 | O=C(O)c1cc2cc(F)ccc2[nH]1 | 4.76
27 | CCCCCCCCCCCCCCCCCCOP(=O)(O)OC1CC[N+](C)(C)CC1 | 0.379
28 | CN(C)c1cc(NC(=O)CNC(C)(C)C)c(O)c2c1C[C@H]1C[C@H]3[C@H](N(C)C)C(=O)C(C(N)=O)C(=O)[C@@]3(O)C(=O)C1C2=O (stereo partly drawn) | -0.865
29 | CC(C)(O)C1=CCC23COC(C2)C(O)(C(=O)O)CCC13 (stereo not drawn) | 2.27
30 | CCCCCCCCCC[C@@H]1C(=O)O[C@H]1CCc1ccc(OC)c(OC)c1 | -0.126
31 | O=C(O)c1cc(-c2ccccc2)nc2ccccc12 | 3.02
32 | Cc1ccc(C(O)(COC(=O)C(C)C)COC(=O)C(C)C)c(O)c1 | 2.62
33 | Cn1c(=O)c2c(ncn2CC(O)CO)n(C)c1=O (stereo not drawn) | 1.98
34 | COc1cc(OC)c2c(c1Cl)OC1(C(=O)CC(=O)CC1C)C2=O (stereo not drawn) | 0.148
35 | CC(C)Cn1cnc2c(N)nc3ccccc3c21 | 3.03
36 | CCn1ccnc1CC1COc2ccccc2O1 (stereo not drawn) | 0.589
37 | CN1CCN(C(c2ccccc2)c2ccc(Cl)cc2)CC1 (stereo not drawn) | 4.69
38 | CCCOc1ccccc1-c1nc2nn[nH]c2c(=O)[nH]1 | 0.426
39 | CC(=O)[C@]1(O)Cc2c(O)c3c(c(O)c2[C@@H](O[C@H]2C[C@H](N)[C@H](O)[C@H](C)O2)C1)C(=O)c1ccccc1C3=O | 1.52
40 | CC(C)[C@H](N)C(=O)OCC(CO)OCn1cnc2c(=O)[nH]c(N)nc21 (stereo partly drawn) | 0.485
41 | Cn1cnc(-c2cc3nccc(Oc4ccc(NC(=S)NC(=O)Cc5ccccc5)cc4F)c3s2)c1 | 15.9
42 | CCCCC#Cc1nc(NC)c2ncn(C3OC(CO)C(O)C3O)c2n1 (stereo not drawn) | 3.94
43 | CN1CCN(c2nc(C3=C(c4c[nH]c5ccccc45)C(=O)NC3=O)c3ccccc3n2)CC1 | 10.5
44 | COc1ccc(C(C#N)C(C)C)cc1OC (stereo not drawn) | 3.39
45 | COC(=O)C1=C(C)NC(C)=C(C(=O)NCCCN2CCC(c3ccccc3)(c3ccccc3)CC2)C1c1ccc([N+](=O)[O-])cc1 (stereo not drawn) | -1.22
46 | C/C=C1/CN[C@H]2Cc3c([nH]c4ccccc34)C(=O)C[C@H]1C2C(=O)OC (stereo partly drawn) | 0.613 ± 0.52
47 | S=C(S)OC1CC2CC1C1CCCC21 (stereo not drawn) | 0.671
48 | O=C1c2ccccc2C(=O)C1c1ccccc1 | 0.176

Row | Compound | cell shape (Z-score)
49 | COc1ccc(-c2cc(=O)c3c(O)cc(O[C@@H]4O[C@H](C(=O)O)[C@@H](O)[C@H](O)[C@H]4O)cc3o2)cc1 | -0.672
50 | CC(C)C[C@@H](C=O)NC(=O)[C@H](CC(C)C)NC(=O)[C@H](CC(C)C)NC(=O)OCc1ccccc1 (Cbz-Leu-Leu-Leu-aldehyde) | 5.25
51 | CCC(=O)c1c(O)cc(O)cc1O | -0.633
52 | O=C(O)c1cn(-c2ccc(F)cc2)c2cc(N3CCNCC3)c(F)cc2c1=O | -0.976
53 | C#CC1(OCC(O)CN2CCN(c3cccc(C(F)(F)F)c3)CC2)CCCCC1 (stereo not drawn) | -7.88
54 | COc1ccc(C2Oc3c(OC)cc(/C=C/COC4OC(CO)C(O)C(O)C4O)cc3C2CO)cc1OC (stereo not drawn) | 0.895
55 | CC(/C=C/C1(O)C(C)CC(O)CC1(C)C)OC1OC(CO)C(O)C(O)C1O (stereo not drawn) | 0.819
56 | COc1ccc2nc(S(=O)Cc3ncc(C)c(OC)c3C)[nH]c2c1 (stereo not drawn) | 3.27
57 | CCn1cc(C(=O)O)c(=O)c2cc(F)c(N3CCN(C)CC3)cc21 | -1.21
58 | NS(=O)(=O)c1cccc2c1c([N+](=O)[O-])cc1[nH]c(=O)c(=O)[nH]c12 | -0.858
59 | CC1OC(OC(=O)C2=CC3CC(C)(C)CC34C(C)OC(=O)CC24)C(O)C(O)C1O (stereo not drawn) | 0.307
60 | CC(C)CC(=O)c1c(O)cc(O)cc1OC1OC(COC(=O)c2cc(O)c(O)c(O)c2)C(O)C(O)C1O (stereo not drawn) | 1.59
61 | CC1=C(CO)CC(C(C)C2CCC3C4CC=C5CC(OC6OC(COC7OC(CO)C(O)C(O)C7O)C(O)C(O)C6O)CC(O)C5(C)C4CCC23C)OC1=O (stereo not drawn) | -0.103
62 | CCOC(=O)N[C@@H]1CC[C@@H]2[C@@H](C1)C[C@H]1C(=O)O[C@H](C)[C@H]1[C@H]2/C=C/c1ccc(-c2cccc(F)c2)cn1 | 5.12
63 | COc1ccc2c(c1OC)C(=O)O[C@@H]2C1c2c(cc3c(c2OC)OCO3)CCN1C (stereo partly drawn) | 1.37
64 | C[C@@H]1CC(=O)C2=C(C1)C[C@@H](O)[C@@]1(O)C2C(=O)c2cccc(O)c2[C@@H]1O (stereo partly drawn) | 1.2 ± 2
65 | Cc1nc2sccn2c(=O)c1CCN1CCC(=C(c2ccccc2)c2ccc(F)cc2)CC1 | -0.891
66 | COc1c(O)cccc1O | 3.67
67 | O=C(OCC1=CC(O)C2C=CO[C@@H](O[C@@H]3O[C@H](CO)[C@@H](O)[C@H](O)[C@H]3O)C12)c1ccccc1 (stereo partly drawn) | 0.548
68 | Cn1ccc2cc(NC(=O)Nc3cccnc3)ccc21 | -2.48
69 | CCC(C)C(O)C(C)(O)/C=C/C1=CC2=CC(=O)C(C)(O)C(O)C2CO1 (stereo not drawn) | 1.53
70 | CC(=O)OC/C=C(\CO)CC/C=C(\C)CC/C=C(\CC/C=C(\C)COC(C)=O)C(=O)O | 0.0582
71 | COC(=O)[C@H](c1ccccc1Cl)N1CCc2sccc2C1 | 2.48
72 | CC#CCOC(=O)C1=CCCN(C)C1 | 0.946

Row | Compound | cell shape (Z-score)
73 | COc1cc(O)cc(C2=C(C)CC(O)C2=O)c1 (stereo not drawn) | -0.518
74 | COc1cc(O)cc(O)c1C(=O)/C=C/c1ccccc1 | 0.64
75 | C[C@@H]([C@@H](O)c1ccc(O)cc1)N1CCC(O)(c2ccccc2)CC1 | -1.15
76 | CCCC(O)c1c(O)cccc1C1(O)CC(=O)C/C1=C\C(O)CC(=O)O (stereo not drawn) | 2.51
77 | C/C=C1/[C@H](O[C@@H]2O[C@H](CO)[C@@H](O)[C@H](O)[C@H]2O)OC=C2C(=O)O[C@@H]3C[C@@H](C(C)CO)[C@H](COC(=O)C[C@H]21)[C@H]3C (stereo partly drawn) | 1.19
78 | CCc1cc(Cl)c(OC)c(C(=O)NCC2CCCN2CC)c1O (stereo not drawn) | -0.609
79 | CC(C)(C)c1ccc(C=CC(=O)Nc2ccc3c(c2)OCCO3)cc1 | 2.06
80 | C[C@@H]1C[C@H]2[C@@H]3CCC4=CC(=O)C=C[C@]4(C)[C@@]3(F)[C@@H](O)C[C@]2(C)[C@@]1(O)C(=O)CO | -1.82
81 | O=c1c(-c2ccccc2)coc2cc(O)ccc12 | -0.511
82 | CCCCCCCCc1ccc(-c2ccc(C(=O)O)cc2)cc1 | 7.84
83 | Cc1nc(NC(=O)N2CCC[C@H]2C(N)=O)sc1-c1ccnc(C(C)(C)C(F)(F)F)c1 | -2.55
84 | COc1cc(/C(C)=C/C(C)=C\C(=O)O)oc(=O)c1C | 0.555 ± 2.6
85 | CCN1CCC[C@H]1CNC(=O)c1c(OC)ccc(Br)c1OC | 0.216
86 | CN(C)CCCSC(=N)N | 0.27
87 | Cc1cc2nc3c(=O)[nH]c(=O)nc-3n(C)c2cc1C=O | -7.12
88 | CC(=O)OCC(=O)[C@@]1(O)CCC2C3CCC4=CC(=O)CC[C@]4(C)C3C(=O)C[C@@]21C (stereo partly drawn) | -0.245
89 | c1ccc2c(CC3=NCCN3)cccc2c1 | 0.474
90 | Cc1nnc(NS(=O)(=O)c2ccc(N)cc2)s1 | 0.834
91 | CC(=O)N[C@@H](C(=O)O[C@H]1CCC(C)(C)[C@@H]2CCC3=C(COC3=O)[C@@]12C)C(C)C | -3.83
92 | COc1cc([C@@H]2c3cc4c(cc3C(OC3O[C@@H]5COC(C)O[C@H]5[C@H](O)[C@H]3O)C3COC(=O)[C@@H]32)OCO4)cc(OC)c1O (stereo partly drawn) | -1.12
93 | C[C@]12C=CC(=O)C=C1CCC1C3C[C@@H](O)[C@](O)(C(=O)CO)[C@@]3(C)C[C@H](O)[C@@]12F (stereo partly drawn) | -1.59
